According to patent publication US7265267:
No constants are given. Whether binding was seen depends on the method and setting. Some binding calls cover weakened binding; strength is not graded here. Where a sequence is shown, tags or fusion partners need not be part of it.

Protein sequences, listed by entry. Tags and fused reporters are not part of them. Lines headed by an entry give the natural chain unless they say otherwise; changes in a name come on top.
UniProt P04386: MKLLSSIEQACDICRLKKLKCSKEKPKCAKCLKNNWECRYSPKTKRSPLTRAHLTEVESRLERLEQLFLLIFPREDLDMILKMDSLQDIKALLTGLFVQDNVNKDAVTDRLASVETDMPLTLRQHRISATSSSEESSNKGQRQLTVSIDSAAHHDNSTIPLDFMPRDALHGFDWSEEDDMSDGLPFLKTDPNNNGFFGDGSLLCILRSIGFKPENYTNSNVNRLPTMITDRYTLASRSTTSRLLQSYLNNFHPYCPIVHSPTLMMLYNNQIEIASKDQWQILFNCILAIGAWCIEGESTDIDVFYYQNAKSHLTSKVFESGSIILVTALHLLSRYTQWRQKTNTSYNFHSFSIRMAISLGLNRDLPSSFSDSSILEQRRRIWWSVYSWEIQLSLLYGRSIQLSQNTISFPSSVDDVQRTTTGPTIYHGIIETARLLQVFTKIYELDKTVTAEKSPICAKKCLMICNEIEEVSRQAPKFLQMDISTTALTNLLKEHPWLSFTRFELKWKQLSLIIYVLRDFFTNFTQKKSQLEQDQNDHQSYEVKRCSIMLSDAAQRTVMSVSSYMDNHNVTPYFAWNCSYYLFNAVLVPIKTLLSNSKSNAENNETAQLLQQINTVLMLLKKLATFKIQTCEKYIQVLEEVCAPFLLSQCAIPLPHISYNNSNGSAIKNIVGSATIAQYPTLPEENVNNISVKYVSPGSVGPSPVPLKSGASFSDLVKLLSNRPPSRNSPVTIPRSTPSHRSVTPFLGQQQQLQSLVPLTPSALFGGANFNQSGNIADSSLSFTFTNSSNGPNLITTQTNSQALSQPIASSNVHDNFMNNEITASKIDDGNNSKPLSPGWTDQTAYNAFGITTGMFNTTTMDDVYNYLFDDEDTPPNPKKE
UniProt P24100: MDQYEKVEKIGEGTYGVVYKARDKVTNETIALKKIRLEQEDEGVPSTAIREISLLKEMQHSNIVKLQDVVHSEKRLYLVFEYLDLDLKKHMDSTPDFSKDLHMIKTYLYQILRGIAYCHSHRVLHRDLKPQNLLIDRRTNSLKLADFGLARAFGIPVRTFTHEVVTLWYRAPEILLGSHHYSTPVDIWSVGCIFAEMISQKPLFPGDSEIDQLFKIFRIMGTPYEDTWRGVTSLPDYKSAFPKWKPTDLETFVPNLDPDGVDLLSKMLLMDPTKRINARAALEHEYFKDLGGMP

B1: GAL4 activation domain-LDV39 fusion (pGADLDV39) (protein, not shown: large carriers)
chain: RRDSPPVEEQCQIEEEDSSVSCCSTSEEKSKRRIEFVDLEENNGDDRETETSWIYDDLNKSEESMNMDSSSVAVEDVESRRRLRKSLHETVKEAELEDFFQVAEKDLRNKLLECSMKYNFDFEKDEPLGGGRYEWVKLNP
B2: GAL4 activation domain-LDV66 fusion (pGADLDV66) (protein, not shown: large carriers)
chain: VNSVPVAQSSNEDECFDNFVSVQVSCGENSLGFESRHSTRESTPCNFVEDMEIMVTPGSSTRSMCRATKEYTREQDNVIPTTSEMEEFFAYAEQQQQRLFMEKYNFDIVNDIPLSGRYEWVQVKP
B3: GAL4 activation domain-LDV159 fusion (pGADLDV159) (protein, Arabidopsis thaliana, UniProt Q67Y93 1-191, looked up, not shown: large carriers)
chain: MVRKYRKAKGIVEAGVSSTYMQLRSRRIVYVRSEKSSSVSVVGDNGVSSSCSGSNEYKKKELIHLEEEDKDGDTETSTYRRGTKRKLFENLREEEKEELSKSMENYSSEFESAVKESLDCCCSGRKTMEETVTAEEEEKAKLMTEMPTESEIEDFFVEAEKQLKEKFKKKYNFDFEKEKPLEGRYEWVKLE

Experiments:
[1] = target: T1, GAL4 DNA-binding domain-CDC2aAt fusion (pGBTCDC2A bait) (Arabidopsis thaliana) (UniProt P04386+P24100); experiment: yeast two-hybrid, growth without histidine
[2] = target: T1, GAL4 DNA-binding domain-CDC2aAt fusion (pGBTCDC2A bait) (Arabidopsis thaliana); experiment: yeast two-hybrid retransformation, growth without histidine

Binder | binding [1] | binding [2]
B1 | binds | binds
B2 | binds | binds
B3 | binds | binds
